Results as given in article PMC7819943, “Rice protein-binding microarrays: a tool to detect cis-acting elements near promoter regions in rice”.
The list shows a part of the results.

Target: T1, OsSMF1 (Oryza sativa, UniProt Q6ZLB0 1-436)
T1 sequence: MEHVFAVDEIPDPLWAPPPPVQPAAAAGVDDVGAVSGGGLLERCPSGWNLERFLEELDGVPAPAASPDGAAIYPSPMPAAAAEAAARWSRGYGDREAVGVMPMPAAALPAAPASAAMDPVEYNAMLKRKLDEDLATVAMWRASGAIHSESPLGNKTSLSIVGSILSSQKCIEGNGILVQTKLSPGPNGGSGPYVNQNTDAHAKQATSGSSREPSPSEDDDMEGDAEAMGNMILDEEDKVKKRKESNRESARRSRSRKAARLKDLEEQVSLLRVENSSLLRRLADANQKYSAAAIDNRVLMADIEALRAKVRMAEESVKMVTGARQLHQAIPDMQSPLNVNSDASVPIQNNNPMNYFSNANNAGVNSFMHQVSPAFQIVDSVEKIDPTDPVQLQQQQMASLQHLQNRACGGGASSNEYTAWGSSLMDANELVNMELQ
Assay: protein-binding microarray (RPBM); PBS, 2% BSA, 51.3 ng/ul salmon testes DNA, 50 uM zinc acetate, 200 nM TF, 25 C, 1 h; high values mean tight binding
Settings: protein: recombinant; tags: N-terminal polyhistidine and DsRed monomer fusion (pET32a); chain copies: 2; label: CyDye5-dUTP incorporated in the synthesized complementary strand; 3' TTTTT single-stranded linker to array surface; dsDNA, one strand shown
Outline: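 Polyhistidine-tagged DsRed fusions of transcription factors, joined at the N-terminus, were expressed in E. coli BL21-CodonPlus and isolated on Ni–NTA. They were incubated at 200 nM for 1 h at 25 °C on a custom Agilent array, double-stranded and BSA-blocked, in PBS with 2% BSA, salmon testes DNA and 50 µM zinc acetate. The binding signal is per-feature fluorescence intensity (arbitrary units) read on an Axon 4000B scanner after washing.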

Question: For “GCGTCCACCTTCCTCGCCAACCACCTCATCACCATGTACTCGGAGTCACCTAGTGCAG”, which binding signal is on record?
Answer: Its binding signal is 5060 fluorescence intensity (a.u.).

Question: “CGGTATCGACGCAGCGTCTGAATGCAAGGGCCCGTGGTCACGGAGTCACCTAGTGCAG” was tested. Which binding signal did it give?
Answer: The binding signal was 27400 fluorescence intensity (a.u.).

Question: “GACTGCCTCCGCAACGGCGCGTCCACGATCCCACGTTCCCCGGAGTCACCTAGTGCAG” was tested. Which binding signal did it give?
Answer: Its binding signal is 3870 fluorescence intensity (a.u.).

Question: With “ATGATTGTACTACTACTACCTGAATCTTGGAGTAGAGTTACGGAGTCACCTAGTGCAG” as the sequence, how does the binding signal read?
Answer: Its binding signal is 25700 fluorescence intensity (a.u.).

Question: With “AACACACCACTTGATCTCCACAAAGTCGACACGCAAGGTGCGGAGTCACCTAGTGCAG” as the sequence, how does the binding signal read?
Answer: The binding signal was 6110 fluorescence intensity (a.u.).

Question: With “TTTGAAAGGAAGCAGCAAGCTTGTTGTTACTGCGTCAGTTCGGAGTCACCTAGTGCAG” as the sequence, how does the binding signal read?
Answer: Its binding signal is 3680 fluorescence intensity (a.u.).

Question: For “GCCATTAGCGCTCCACGTGTCCTCTTAGGCACTTCACCAACGGAGTCACCTAGTGCAG”, which binding signal is on record?
Answer: Its binding signal is 10600 fluorescence intensity (a.u.).

Question: Which binding signal does the source give for “GCTTTGTGTAAGTTGCTCTTAGTTGCGTAACTGCAAAAGTCGGAGTCACCTAGTGCAG” here?
Answer: The binding signal was 6780 fluorescence intensity (a.u.).

Question: “CATGTCAAGAGACAATGGAATTGATGGCATCACGCATGGCCGGAGTCACCTAGTGCAG” was tested. Which binding signal did it give?
Answer: Its binding signal is 3340 fluorescence intensity (a.u.).

Question: Which binding signal does the source give for “CAGCAGCAACGAAATCAGAACGAGGCGCAGGAAGAAGAAACGGAGTCACCTAGTGCAG” here?
Answer: The binding signal was 28000 fluorescence intensity (a.u.).

Question: For “CGTTGGGCTCAAGGGGAGGGATATCTATCTAACAGTAACACGGAGTCACCTAGTGCAG”, which binding signal is on record?
Answer: Its binding signal is 4110 fluorescence intensity (a.u.).

Question: With “TAGCAGCCAAGAATAGCCAGCGACCAAACCTACGAGACGCCGGAGTCACCTAGTGCAG” as the sequence, how does the binding signal read?
Answer: The binding signal was 3790 fluorescence intensity (a.u.).

Question: “TGTTGTGCTTGCTGATGTGTTGGAAATTCCACCCTTTTGTCGGAGTCACCTAGTGCAG” was tested. Which binding signal did it give?
Answer: The binding signal was 7560 fluorescence intensity (a.u.).

Question: “AGAGTCAACCTGTCACGTCAGCAGAAACCGCTTCATAAGGCGGAGTCACCTAGTGCAG” was tested. Which binding signal did it give?
Answer: Its binding signal is 7190 fluorescence intensity (a.u.).

Question: With “GACGGCGGCCGCAGCAGGCTTGATGAGACGGAAGCTGCGGCGGAGTCACCTAGTGCAG” as the sequence, how does the binding signal read?
Answer: Its binding signal is 37700 fluorescence intensity (a.u.).

Question: How did the binding signal turn out when “CCGCAGTCGTGGCAACGCCGACATCCTCTTTTAGCCCACCCGGAGTCACCTAGTGCAG” was run?
Answer: Its binding signal is 3420 fluorescence intensity (a.u.).

Question: How did the binding signal turn out when “GGCACGTCAGTCGCCAAGGGTTCGGGAGATAAGAGGCCATCGGAGTCACCTAGTGCAG” was run?
Answer: The binding signal was 3730 fluorescence intensity (a.u.).

Question: How did the binding signal turn out when “GAAATGACATTTCAATTCATCTATTTATTAGCGGGAGTTGCGGAGTCACCTAGTGCAG” was run?
Answer: The binding signal was 4570 fluorescence intensity (a.u.).

Question: How did the binding signal turn out when “GACTTCTTGTCAACGATGTGGGCACGTGGCCATGGAAAGTCGGAGTCACCTAGTGCAG” was run?
Answer: The binding signal was 6780 fluorescence intensity (a.u.).

Question: Which binding signal does the source give for “CTTCCGTTCTTCTCTTGTTTACCATATAAGGGCATGTACACGGAGTCACCTAGTGCAG” here?
Answer: The binding signal was 3400 fluorescence intensity (a.u.).

Question: “TCGATTCATTCGTTCCTTGGGTCGTGTCAGCATGGCCCATCGGAGTCACCTAGTGCAG” was tested. Which binding signal did it give?
Answer: Its binding signal is 11100 fluorescence intensity (a.u.).

Question: Which binding signal does the source give for “ACTGTATGTGATGTGGATGATCTTGAAGATGTTGGGAGATCGGAGTCACCTAGTGCAG” here?
Answer: Its binding signal is 4060 fluorescence intensity (a.u.).

Question: Which binding signal does the source give for “GTGAAGAAACCATATACATATTTTGGTTTATGTGTCACCTCGGAGTCACCTAGTGCAG” here?
Answer: The binding signal was 4980 fluorescence intensity (a.u.).

Question: Which binding signal does the source give for “GCCTCGCCTCGCCGCCGGCGGCCACCGTCTCCGCCGCCTCCGGAGTCACCTAGTGCAG” here?
Answer: The binding signal was 3410 fluorescence intensity (a.u.).

Question: With “CGATTAGTACTGAATGTACCACATCAGTTTGTTCGATATGCGGAGTCACCTAGTGCAG” as the sequence, how does the binding signal read?
Answer: The binding signal was 3850 fluorescence intensity (a.u.).

Question: Which binding signal does the source give for “GTGATACCACGTATGATACCACGTAGATATCAGCTAGTTCCGGAGTCACCTAGTGCAG” here?
Answer: The binding signal was 9120 fluorescence intensity (a.u.).

Question: Which binding signal does the source give for “GGATTAGATACACTTCTCATCTGTCACTACTCTAAACTGTCGGAGTCACCTAGTGCAG” here?
Answer: The binding signal was 3140 fluorescence intensity (a.u.).

Question: Which binding signal does the source give for “CCATGGAAGCCTGACACGTGTACTCCGGTCACGCGCGTAGCGGAGTCACCTAGTGCAG” here?
Answer: The binding signal was 14400 fluorescence intensity (a.u.).

Question: For “TGACTAATACGCAGGGGAGCTCGCCGCCGCCGCCGCCGTCCGGAGTCACCTAGTGCAG”, which binding signal is on record?
Answer: The binding signal was 21600 fluorescence intensity (a.u.).

Question: How did the binding signal turn out when “CCCGCATCGCCTCCACCACTGCGGCCTTGCACCACCACCGCGGAGTCACCTAGTGCAG” was run?
Answer: The binding signal was 26500 fluorescence intensity (a.u.).

Question: “ACGCCGCTAGTTCTTTTCTCCAGAGCAATCTGGTCAGTTCCGGAGTCACCTAGTGCAG” was tested. Which binding signal did it give?
Answer: Its binding signal is 59900 fluorescence intensity (a.u.).

Question: With “CCTCGCGCGGAGCCGTACCCACGTGCGCCCCACGCGTGCACGGAGTCACCTAGTGCAG” as the sequence, how does the binding signal read?
Answer: Its binding signal is 3540 fluorescence intensity (a.u.).

Question: With “CTCCACCACCTGCGCGCCGCGGCCAGCGCCGCAGTAGACCCGGAGTCACCTAGTGCAG” as the sequence, how does the binding signal read?
Answer: The binding signal was 3480 fluorescence intensity (a.u.).

Question: With “CATATTCTGATATTCCCATCCACGTCAGCATTTCCCCACCCGGAGTCACCTAGTGCAG” as the sequence, how does the binding signal read?
Answer: The binding signal was 41000 fluorescence intensity (a.u.).

Question: How did the binding signal turn out when “TCTACCCGCTCCACGCCGCCTCGTCATCCCTTCATTACTACGGAGTCACCTAGTGCAG” was run?
Answer: Its binding signal is 5230 fluorescence intensity (a.u.).

Question: “CATAACAGTTTTATGGCTATCATCAATTTTATTTTGTCCGCGGAGTCACCTAGTGCAG” was tested. Which binding signal did it give?
Answer: The binding signal was 3370 fluorescence intensity (a.u.).

Question: Which binding signal does the source give for “TTCTATATGTTTGTGACAGCACAAATAATATCTTGAGGATCGGAGTCACCTAGTGCAG” here?
Answer: The binding signal was 3210 fluorescence intensity (a.u.).

Question: Which binding signal does the source give for “CTGCATTGTGGTTGATCCACGTCATCAAAATGAATGCCAGCGGAGTCACCTAGTGCAG” here?
Answer: Its binding signal is 12600 fluorescence intensity (a.u.).

Question: With “CTGAGGCCTTTGGGCGCCACGCCACGCGATGCATGCTCGACGGAGTCACCTAGTGCAG” as the sequence, how does the binding signal read?
Answer: Its binding signal is 6920 fluorescence intensity (a.u.).

Question: For “CGGTGAGATTATAAAATGCCACGTGGCAATCTAAGAGCGTCGGAGTCACCTAGTGCAG”, which binding signal is on record?
Answer: Its binding signal is 29100 fluorescence intensity (a.u.).

Question: “TCCTCGACCGGCACGTCCATCATCACACGTAGACTCAGAACGGAGTCACCTAGTGCAG” was tested. Which binding signal did it give?
Answer: Its binding signal is 5590 fluorescence intensity (a.u.).

Question: For “TCGTCTCCTCCGCCGCCACGTCCCCGAGCCCCGCGTCCTGCGGAGTCACCTAGTGCAG”, which binding signal is on record?
Answer: The binding signal was 10300 fluorescence intensity (a.u.).
